These are yes or no findings as the source states them, for the method shown. In cells and extracts the contact can be indirect. Here binding means that the protein was enriched with, or labelled near, the bait; the list need not be complete. For part of these data: A no says only that the protein was not detected with the bait. Values belong to the substance of their own block, whether it stands above or below them.
Key:
[1] = target: T1, 2-Oxoisovalerate-ferredoxin oxidoreductase, δ subunit (Thermococcus kodakarensis) (UniProt Q5JIK1); experiment: affinity purification with mass spectrometry; HA- and His6-tagged bait made from its native locus, captured from clarified T. kodakarensis lysate on a Ni2+-charged chelating column (buffer A: 10 mM Tris HCl pH 8.0, 500 mM NaCl, 10% glycerol), eluted with an imidazole gradient; pooled fractions identified by MuDPIT LC-MS/MS and compared with the parental strain TS559 (P < 0.05, log2 fold change ≥ 2); cells grown at 85°C with (+S˚) or without (–S˚) elemental sulfur
T1 sequence: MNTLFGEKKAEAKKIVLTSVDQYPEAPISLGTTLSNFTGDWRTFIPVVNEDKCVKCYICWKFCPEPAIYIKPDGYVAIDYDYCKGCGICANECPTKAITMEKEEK

The chains behind the UniProt entries cited, without tags or fusion partners. Where a name states a change or a piece, a line headed by the entry shows the natural chain unless it says otherwise.
UniProt Q5JE61: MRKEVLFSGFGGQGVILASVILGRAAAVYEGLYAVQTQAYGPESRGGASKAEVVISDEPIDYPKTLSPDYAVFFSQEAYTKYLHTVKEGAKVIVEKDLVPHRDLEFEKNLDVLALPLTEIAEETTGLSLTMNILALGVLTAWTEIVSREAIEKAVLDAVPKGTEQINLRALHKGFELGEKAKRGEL
UniProt Q5JIK0: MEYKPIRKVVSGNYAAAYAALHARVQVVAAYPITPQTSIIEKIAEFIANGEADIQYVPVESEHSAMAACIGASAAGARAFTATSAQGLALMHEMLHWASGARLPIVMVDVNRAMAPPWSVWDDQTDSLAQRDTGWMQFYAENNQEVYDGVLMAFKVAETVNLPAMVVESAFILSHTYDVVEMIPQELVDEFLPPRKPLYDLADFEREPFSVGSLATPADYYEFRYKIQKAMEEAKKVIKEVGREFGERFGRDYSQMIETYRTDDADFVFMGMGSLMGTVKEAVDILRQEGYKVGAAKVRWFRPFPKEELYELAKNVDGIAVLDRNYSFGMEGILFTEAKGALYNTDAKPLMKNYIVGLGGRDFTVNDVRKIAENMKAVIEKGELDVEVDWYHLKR
UniProt Q5JE28: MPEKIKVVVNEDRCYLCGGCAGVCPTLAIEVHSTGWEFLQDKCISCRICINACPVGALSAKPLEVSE
UniProt Q5JE58: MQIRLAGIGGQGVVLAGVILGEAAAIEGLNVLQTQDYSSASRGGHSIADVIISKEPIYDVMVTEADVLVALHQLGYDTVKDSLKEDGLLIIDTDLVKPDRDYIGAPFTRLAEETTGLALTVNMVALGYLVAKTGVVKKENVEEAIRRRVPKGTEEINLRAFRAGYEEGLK

[2] = target: T2, 2-Oxoisovalerate-ferredoxin oxidoreductase, β subunit (Thermococcus kodakarensis) (UniProt Q5JIJ9); experiment: as above
T2 sequence: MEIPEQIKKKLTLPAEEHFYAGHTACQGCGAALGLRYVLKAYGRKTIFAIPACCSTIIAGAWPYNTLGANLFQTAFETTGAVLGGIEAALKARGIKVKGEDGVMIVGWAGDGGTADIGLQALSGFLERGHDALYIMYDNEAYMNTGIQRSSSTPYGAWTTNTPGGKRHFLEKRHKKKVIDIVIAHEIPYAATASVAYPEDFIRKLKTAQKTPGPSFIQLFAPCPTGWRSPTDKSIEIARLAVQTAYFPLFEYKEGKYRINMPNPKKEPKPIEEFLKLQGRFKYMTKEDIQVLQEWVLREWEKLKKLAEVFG

[3] = target: T3, 2-Oxoisovalerate-ferredoxin oxidoreductase, γ subunit (Thermococcus kodakarensis) (UniProt Q5JIK2); experiment: as above
T3 sequence: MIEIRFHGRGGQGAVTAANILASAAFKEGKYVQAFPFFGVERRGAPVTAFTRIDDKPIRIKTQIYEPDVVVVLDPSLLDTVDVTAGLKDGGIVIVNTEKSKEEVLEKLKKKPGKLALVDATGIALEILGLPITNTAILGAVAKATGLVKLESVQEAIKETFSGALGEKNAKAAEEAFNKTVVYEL

[4] = target: T4, Geranylgeranyl reductase (Thermococcus kodakarensis) (UniProt Q5JE27); experiment: as above
T4 sequence: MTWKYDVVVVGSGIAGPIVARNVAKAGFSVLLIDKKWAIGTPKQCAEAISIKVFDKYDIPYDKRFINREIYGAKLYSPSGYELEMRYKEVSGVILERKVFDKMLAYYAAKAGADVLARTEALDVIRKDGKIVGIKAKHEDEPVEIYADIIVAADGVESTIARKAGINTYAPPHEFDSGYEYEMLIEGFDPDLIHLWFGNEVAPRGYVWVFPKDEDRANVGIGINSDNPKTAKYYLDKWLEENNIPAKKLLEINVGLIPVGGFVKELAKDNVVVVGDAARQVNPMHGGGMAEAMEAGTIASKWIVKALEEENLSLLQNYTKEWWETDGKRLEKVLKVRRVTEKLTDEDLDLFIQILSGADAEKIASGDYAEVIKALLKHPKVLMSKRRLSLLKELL

[5] = target: 2-Oxoacid:ferredoxin oxidoreductase, γ1 subunit (Thermococcus kodakarensis) (UniProt Q5JE61); experiment: as above
[6] = target: 2-Oxoacid:ferredoxin oxidoreductase, γ1 subunit (Thermococcus kodakarensis) (UniProt Q5JE61); experiment: affinity purification with mass spectrometry; as a1, only the purifications from cells grown with elemental sulfur (+S˚)

binding [1]: binds | binding [2]: binds | binding [3]: binds
Substance: 2-Oxoisovalerate-ferredoxin oxidoreductase, α subunit (from UniProt Q5JIK0)

binding [4]: binds
Substance: Fd2 (TK1087) (from UniProt Q5JE28)

binding [5]: binds | binding [6]: no binding (only cells grown with S˚)
Substance: OGORγ2 (TK1126) (from UniProt Q5JE58)

From paper PMC12016516
